Laboratory results taken from patent US20220098256A1 (TOKUSHIMA UNIVERSITY, published 2022).
Results are given in words; binding and its absence hold for the method and conditions named. Binding seen in cells or lysates may run through a third protein. Some results given as binding are weak or reduced against the parent protein; the word gives no strength.

By UniProt entry, the sequences of proteins in these tests, tags left out. Where a name states a change or a piece, a line headed by the entry shows the natural chain unless it says otherwise.
UniProt Q5TH69: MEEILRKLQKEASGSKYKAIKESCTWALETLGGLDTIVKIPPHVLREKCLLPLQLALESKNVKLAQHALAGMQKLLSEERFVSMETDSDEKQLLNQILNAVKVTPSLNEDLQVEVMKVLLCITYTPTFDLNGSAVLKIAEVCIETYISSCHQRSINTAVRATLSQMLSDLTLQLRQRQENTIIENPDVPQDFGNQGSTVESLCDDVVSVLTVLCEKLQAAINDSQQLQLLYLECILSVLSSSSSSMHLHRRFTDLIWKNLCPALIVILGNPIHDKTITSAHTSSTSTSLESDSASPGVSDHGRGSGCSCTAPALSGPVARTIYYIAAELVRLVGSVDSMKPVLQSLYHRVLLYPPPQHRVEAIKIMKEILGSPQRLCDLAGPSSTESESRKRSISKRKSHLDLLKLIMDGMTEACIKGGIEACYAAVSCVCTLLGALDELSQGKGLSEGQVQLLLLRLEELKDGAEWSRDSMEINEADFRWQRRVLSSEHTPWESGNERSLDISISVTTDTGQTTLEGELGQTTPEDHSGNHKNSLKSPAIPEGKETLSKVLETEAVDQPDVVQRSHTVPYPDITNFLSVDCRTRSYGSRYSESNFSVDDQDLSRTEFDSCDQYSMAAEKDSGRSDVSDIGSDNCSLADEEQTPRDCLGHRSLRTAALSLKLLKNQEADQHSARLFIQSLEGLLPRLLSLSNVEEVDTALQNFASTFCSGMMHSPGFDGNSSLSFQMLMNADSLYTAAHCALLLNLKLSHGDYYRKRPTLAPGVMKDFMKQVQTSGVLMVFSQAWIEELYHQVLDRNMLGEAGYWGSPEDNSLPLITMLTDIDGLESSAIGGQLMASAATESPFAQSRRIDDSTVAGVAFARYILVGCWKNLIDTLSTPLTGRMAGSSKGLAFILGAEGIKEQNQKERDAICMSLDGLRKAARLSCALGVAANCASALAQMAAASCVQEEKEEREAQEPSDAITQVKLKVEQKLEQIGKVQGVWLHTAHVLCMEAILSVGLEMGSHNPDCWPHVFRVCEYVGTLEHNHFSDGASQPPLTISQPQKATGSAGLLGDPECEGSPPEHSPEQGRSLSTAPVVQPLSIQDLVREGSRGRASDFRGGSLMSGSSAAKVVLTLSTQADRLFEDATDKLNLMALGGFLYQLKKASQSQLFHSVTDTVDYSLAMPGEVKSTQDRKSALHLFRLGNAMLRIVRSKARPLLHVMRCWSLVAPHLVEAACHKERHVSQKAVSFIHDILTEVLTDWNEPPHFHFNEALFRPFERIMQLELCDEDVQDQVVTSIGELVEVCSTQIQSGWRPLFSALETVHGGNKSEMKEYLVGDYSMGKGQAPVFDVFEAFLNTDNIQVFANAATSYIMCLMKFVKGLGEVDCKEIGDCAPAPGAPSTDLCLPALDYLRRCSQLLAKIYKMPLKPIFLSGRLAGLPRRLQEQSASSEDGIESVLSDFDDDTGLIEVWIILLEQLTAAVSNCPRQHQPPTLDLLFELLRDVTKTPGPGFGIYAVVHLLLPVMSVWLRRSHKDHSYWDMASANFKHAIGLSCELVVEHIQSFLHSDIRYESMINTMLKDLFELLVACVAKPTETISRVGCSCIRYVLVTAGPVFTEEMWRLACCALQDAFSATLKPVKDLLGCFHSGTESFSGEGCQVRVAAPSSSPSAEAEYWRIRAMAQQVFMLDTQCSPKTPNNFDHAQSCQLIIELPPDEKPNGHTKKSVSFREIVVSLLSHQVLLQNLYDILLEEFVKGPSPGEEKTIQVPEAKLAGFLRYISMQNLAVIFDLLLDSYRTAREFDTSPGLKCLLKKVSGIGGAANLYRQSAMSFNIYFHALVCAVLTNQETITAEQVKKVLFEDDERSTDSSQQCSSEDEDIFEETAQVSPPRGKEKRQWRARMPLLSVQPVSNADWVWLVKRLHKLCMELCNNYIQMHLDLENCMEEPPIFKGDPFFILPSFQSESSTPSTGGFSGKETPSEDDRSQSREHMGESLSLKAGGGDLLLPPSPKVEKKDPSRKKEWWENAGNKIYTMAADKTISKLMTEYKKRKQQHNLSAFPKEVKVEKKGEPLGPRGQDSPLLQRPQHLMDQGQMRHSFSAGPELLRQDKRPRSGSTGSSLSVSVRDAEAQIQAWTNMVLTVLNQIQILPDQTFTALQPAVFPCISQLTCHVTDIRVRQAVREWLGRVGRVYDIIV

Molecular target: prohibitin 2 (PHB2) (human)
Assay: co-immunoprecipitation from MCF-7 lysate, Western blotting

For “brefeldin A-inhibited guanine nucleotide-exchange protein 3 (BIG3) (from UniProt Q5TH69 1-2177)”, the binding was “binds”.
